{"source": "patent US20240319146", "about": "(published 2024)", "experiment": "general procedure: solution-phase peptide synthesis; liquid-phase carriers (Tag): B-STag, D-STag, X-STag; COMU, DIEPA", "conditions": "whole synthesis, Analysis Condition 1, scale of the general procedure 1.0 mmol"}
{"substance": "H-Asp-Ala-Asn-Cys-Glu-OH", "values": [{"measurement": "crude HPLC purity", "setting": "run 1", "result": 80.1, "unit": "%"}, {"measurement": "crude HPLC purity", "setting": "run 2", "result": 74.2, "unit": "%"}]}
{"substance": "H-Gln-Trp-Glu-Arg-Thr-NH2", "values": [{"measurement": "crude HPLC purity", "setting": "run 1", "result": 71.0, "unit": "%"}, {"measurement": "crude HPLC purity", "setting": "run 2", "result": 82.0, "unit": "%"}]}
{"substance": "H-Ser-Met-Ile-Leu-Glu-OH", "values": [{"measurement": "crude HPLC purity", "result": 62.3, "unit": "%"}]}
